Assay results

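A panel of P. falciparum strains inside erythrocytes is exposed to compounds for three days, then a DNA-binding dye reports the amount of parasite DNA. Each compound was titrated across a series from about 0.000037 to 29 µM. The number is the fitted AC50, the concentration giving a half-maximal change in signal; a lower value means higher potency, whether the curve shows a decrease or an increase. Calls follow the curve class and fit quality: every row here is inconclusive, covering signal-raising curves and weak, poorly fitted, partial or highest-dose-only inhibition curves.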

Values are in µM. All entries here are filed as inconclusive. Only part of the assay is shown, chiefly results filed as inconclusive. A potency from a partial, single-point or poor curve is only a rough figure.

structure	tested on / at	potency (µM)	curve as filed
CS(=O)(=O)c1ccc([C@@H](O)[C@@H](COC(=O)CN)NC(=O)C(Cl)Cl)cc1	CP260	8.912	inhibitor, partial curve
CS(=O)(=O)c1ccc([C@@H](O)[C@@H](COC(=O)CN)NC(=O)C(Cl)Cl)cc1	C2A	4.467	inhibitor, partial curve, poor fit
CS(=O)(=O)c1ccc([C@@H](O)[C@@H](COC(=O)CN)NC(=O)C(Cl)Cl)cc1	CP256	14.13	inhibitor, single point
CS(=O)(=O)c1ccc([C@@H](O)[C@@H](COC(=O)CN)NC(=O)C(Cl)Cl)cc1	CP291	6.746	inhibitor, partial curve
CS(=O)(=O)c1ccc([C@@H](O)[C@@H](COC(=O)CN)NC(=O)C(Cl)Cl)cc1	P94_40	5.623	inhibitor, partial curve
CS(=O)(=O)c1ccc([C@@H](O)[C@@H](COC(=O)CN)NC(=O)C(Cl)Cl)cc1	CP269	16.94	inhibitor, partial curve
CS(=O)(=O)c1ccc([C@@H](O)[C@@H](COC(=O)CN)NC(=O)C(Cl)Cl)cc1	DFO2036	10	inhibitor, single point
CS(=O)(=O)c1ccc([C@@H](O)[C@@H](COC(=O)CN)NC(=O)C(Cl)Cl)cc1	ATS95	12.59	inhibitor, single point
CS(=O)(=O)c1ccc([C@@H](O)[C@@H](COC(=O)CN)NC(=O)C(Cl)Cl)cc1	P93_24	7.08	inhibitor, partial curve
CS(=O)(=O)c1ccc([C@@H](O)[C@@H](COC(=O)CN)NC(=O)C(Cl)Cl)cc1	CP203	12	inhibitor, partial curve, poor fit
CS(=O)(=O)c1ccc([C@@H](O)[C@@H](COC(=O)CN)NC(=O)C(Cl)Cl)cc1	TAB165	7.943	inhibitor, partial curve
CS(=O)(=O)c1ccc([C@@H](O)[C@@H](COC(=O)CN)NC(=O)C(Cl)Cl)cc1	CP265	14.13	inhibitor, single point
CS(=O)(=O)c1ccc([C@@H](O)[C@@H](COC(=O)CN)NC(=O)C(Cl)Cl)cc1	AA1029	10	inhibitor, partial curve
CS(=O)(=O)c1ccc([C@@H](O)[C@@H](COC(=O)CN)NC(=O)C(Cl)Cl)cc1	CP185	11.22	inhibitor, single point
CS(=O)(=O)c1ccc([C@@H](O)[C@@H](COC(=O)CN)NC(=O)C(Cl)Cl)cc1	CP201	10.69	inhibitor, single point
CS(=O)(=O)c1ccc([C@@H](O)[C@@H](COC(=O)CN)NC(=O)C(Cl)Cl)cc1	CP297	19.01	inhibitor, single point
CS(=O)(=O)c1ccc([C@@H](O)[C@@H](COC(=O)CN)NC(=O)C(Cl)Cl)cc1	CP211	16.94	inhibitor, single point
CS(=O)(=O)c1ccc([C@@H](O)[C@@H](COC(=O)CN)NC(=O)C(Cl)Cl)cc1	CP305	8.492	inhibitor, partial curve
CS(=O)(=O)c1ccc([C@@H](O)[C@@H](COC(=O)CN)NC(=O)C(Cl)Cl)cc1	CP215	12	inhibitor, partial curve
CS(=O)(=O)c1ccc([C@@H](O)[C@@H](COC(=O)CN)NC(=O)C(Cl)Cl)cc1	CP268	6.746	inhibitor, partial curve, poor fit
CS(=O)(=O)c1ccc([C@@H](O)[C@@H](COC(=O)CN)NC(=O)C(Cl)Cl)cc1	ICS	11.22	inhibitor, partial curve
CS(=O)(=O)c1ccc([C@@H](O)[C@@H](COC(=O)CN)NC(=O)C(Cl)Cl)cc1	CP266	12	inhibitor, single point
CS(=O)(=O)c1ccc([C@@H](O)[C@@H](COC(=O)CN)NC(=O)C(Cl)Cl)cc1	CP329	15.1	inhibitor, single point
CS(=O)(=O)c1ccc([C@@H](O)[C@@H](COC(=O)CN)NC(=O)C(Cl)Cl)cc1	CP315	19.01	inhibitor, partial curve, poor fit
CS(=O)(=O)c1ccc([C@@H](O)[C@@H](COC(=O)CN)NC(=O)C(Cl)Cl)cc1	CP325	13.46	inhibitor, partial curve
CS(=O)(=O)c1ccc([C@@H](O)[C@@H](COC(=O)CN)NC(=O)C(Cl)Cl)cc1	CP194	19.01	inhibitor, single point
CS(=O)(=O)c1ccc([C@@H](O)[C@@H](COC(=O)CN)NC(=O)C(Cl)Cl)cc1	CP238	10	inhibitor, partial curve
CS(=O)(=O)c1ccc([C@@H](O)[C@@H](COC(=O)CN)NC(=O)C(Cl)Cl)cc1	CP237	11.22	inhibitor, single point

Once more, the final 3:

| structure | tested on / at | potency (µM) | curve as filed |
|---|---|---|---|
| `CS(=O)(=O)c1ccc([C@@H](O)[C@@H](COC(=O)CN)NC(=O)C(Cl)Cl)cc1` | CP194 | 19.01 | inhibitor, single point |
| `CS(=O)(=O)c1ccc([C@@H](O)[C@@H](COC(=O)CN)NC(=O)C(Cl)Cl)cc1` | CP238 | 10 | inhibitor, partial curve |
| `CS(=O)(=O)c1ccc([C@@H](O)[C@@H](COC(=O)CN)NC(=O)C(Cl)Cl)cc1` | CP237 | 11.22 | inhibitor, single point |

From PubChem BioAssay record AID504749 (NCATS, 2011).